Measurements: the supplement of paper PMC10849652
Some of the results follow.

Chains of the proteins cited; added tags and fusions are not shown. Lines headed by an entry give the natural chain unless they say otherwise; changes in a name come on top.
UniProt Q8TBF2: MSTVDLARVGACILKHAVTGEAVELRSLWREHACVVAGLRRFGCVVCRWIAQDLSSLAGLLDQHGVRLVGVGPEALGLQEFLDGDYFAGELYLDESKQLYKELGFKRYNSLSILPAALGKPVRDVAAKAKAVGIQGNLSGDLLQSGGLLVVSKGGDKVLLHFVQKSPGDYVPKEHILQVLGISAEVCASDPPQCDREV
UniProt P17706: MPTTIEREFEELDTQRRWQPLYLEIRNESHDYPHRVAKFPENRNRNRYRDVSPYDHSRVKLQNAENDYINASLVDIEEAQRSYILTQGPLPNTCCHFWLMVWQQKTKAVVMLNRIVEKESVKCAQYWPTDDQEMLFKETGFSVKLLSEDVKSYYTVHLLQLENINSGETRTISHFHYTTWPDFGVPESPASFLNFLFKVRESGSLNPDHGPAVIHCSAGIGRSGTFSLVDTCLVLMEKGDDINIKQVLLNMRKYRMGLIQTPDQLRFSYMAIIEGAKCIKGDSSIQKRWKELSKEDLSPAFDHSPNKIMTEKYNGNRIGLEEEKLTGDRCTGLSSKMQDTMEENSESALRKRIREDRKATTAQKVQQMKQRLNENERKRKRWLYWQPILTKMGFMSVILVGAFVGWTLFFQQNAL
UniProt P51665: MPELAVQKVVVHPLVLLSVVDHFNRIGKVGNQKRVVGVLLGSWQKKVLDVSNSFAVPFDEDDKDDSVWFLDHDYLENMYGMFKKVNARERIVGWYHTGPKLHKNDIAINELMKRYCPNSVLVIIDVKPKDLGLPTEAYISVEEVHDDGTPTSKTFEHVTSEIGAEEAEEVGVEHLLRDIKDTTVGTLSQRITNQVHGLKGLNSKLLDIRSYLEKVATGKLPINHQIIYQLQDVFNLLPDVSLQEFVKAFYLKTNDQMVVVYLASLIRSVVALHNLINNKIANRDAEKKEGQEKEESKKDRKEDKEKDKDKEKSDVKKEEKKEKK
UniProt Q9BZE2: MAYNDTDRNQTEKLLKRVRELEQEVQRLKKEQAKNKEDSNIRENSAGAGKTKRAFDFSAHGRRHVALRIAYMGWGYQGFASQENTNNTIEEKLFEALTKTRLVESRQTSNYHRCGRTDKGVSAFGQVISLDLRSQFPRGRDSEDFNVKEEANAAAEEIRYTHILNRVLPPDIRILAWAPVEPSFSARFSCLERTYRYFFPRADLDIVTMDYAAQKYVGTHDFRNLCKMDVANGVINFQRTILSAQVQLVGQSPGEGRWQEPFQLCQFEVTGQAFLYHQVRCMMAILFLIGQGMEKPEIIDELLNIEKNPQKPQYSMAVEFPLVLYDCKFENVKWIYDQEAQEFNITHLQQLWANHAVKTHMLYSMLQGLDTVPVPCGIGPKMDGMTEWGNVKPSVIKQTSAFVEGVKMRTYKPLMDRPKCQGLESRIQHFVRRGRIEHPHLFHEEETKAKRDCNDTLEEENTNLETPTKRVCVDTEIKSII
UniProt Q93096: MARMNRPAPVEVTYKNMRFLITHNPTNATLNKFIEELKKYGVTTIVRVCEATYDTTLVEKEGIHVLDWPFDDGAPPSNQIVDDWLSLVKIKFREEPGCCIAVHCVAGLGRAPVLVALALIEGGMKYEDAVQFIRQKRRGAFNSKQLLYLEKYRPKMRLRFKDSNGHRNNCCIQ
UniProt P18031: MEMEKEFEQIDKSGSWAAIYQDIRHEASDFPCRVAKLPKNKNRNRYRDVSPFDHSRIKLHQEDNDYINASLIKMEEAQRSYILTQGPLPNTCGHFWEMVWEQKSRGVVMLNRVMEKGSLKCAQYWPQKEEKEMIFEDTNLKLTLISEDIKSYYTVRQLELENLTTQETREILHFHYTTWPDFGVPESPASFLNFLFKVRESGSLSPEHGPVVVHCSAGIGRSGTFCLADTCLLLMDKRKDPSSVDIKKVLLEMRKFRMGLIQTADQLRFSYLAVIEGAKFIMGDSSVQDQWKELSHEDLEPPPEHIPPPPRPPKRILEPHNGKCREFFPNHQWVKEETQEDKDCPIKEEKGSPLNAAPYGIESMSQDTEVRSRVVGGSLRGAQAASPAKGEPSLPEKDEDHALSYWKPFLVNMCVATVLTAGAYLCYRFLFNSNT
UniProt Q03393: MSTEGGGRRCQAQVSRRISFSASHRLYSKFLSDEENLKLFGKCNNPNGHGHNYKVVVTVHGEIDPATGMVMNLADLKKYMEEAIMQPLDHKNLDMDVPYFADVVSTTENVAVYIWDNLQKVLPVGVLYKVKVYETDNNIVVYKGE
UniProt Q8WV60: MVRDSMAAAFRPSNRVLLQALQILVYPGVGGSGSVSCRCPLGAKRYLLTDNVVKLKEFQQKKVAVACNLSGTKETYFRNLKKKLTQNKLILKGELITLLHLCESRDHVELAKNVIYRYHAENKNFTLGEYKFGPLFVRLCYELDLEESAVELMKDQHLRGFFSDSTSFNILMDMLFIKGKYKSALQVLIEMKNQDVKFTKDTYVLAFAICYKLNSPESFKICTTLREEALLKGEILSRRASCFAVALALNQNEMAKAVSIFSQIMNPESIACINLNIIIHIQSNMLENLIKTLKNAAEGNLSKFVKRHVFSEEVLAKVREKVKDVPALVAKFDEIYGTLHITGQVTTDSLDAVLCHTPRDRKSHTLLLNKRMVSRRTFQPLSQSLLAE
UniProt O95758: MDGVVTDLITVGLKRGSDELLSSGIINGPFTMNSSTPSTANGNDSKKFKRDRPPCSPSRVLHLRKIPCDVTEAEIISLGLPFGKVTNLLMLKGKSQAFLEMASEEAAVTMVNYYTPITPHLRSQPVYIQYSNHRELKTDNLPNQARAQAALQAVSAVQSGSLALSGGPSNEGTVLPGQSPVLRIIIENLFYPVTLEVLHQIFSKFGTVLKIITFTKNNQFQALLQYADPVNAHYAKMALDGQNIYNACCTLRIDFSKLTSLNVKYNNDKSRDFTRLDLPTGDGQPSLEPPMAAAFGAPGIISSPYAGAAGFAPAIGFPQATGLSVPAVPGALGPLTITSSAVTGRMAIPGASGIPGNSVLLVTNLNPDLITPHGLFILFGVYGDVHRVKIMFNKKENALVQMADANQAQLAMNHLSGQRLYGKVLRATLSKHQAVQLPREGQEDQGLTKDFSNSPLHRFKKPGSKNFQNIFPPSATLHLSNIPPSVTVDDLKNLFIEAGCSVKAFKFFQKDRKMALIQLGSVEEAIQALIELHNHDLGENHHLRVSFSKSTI
UniProt P28065: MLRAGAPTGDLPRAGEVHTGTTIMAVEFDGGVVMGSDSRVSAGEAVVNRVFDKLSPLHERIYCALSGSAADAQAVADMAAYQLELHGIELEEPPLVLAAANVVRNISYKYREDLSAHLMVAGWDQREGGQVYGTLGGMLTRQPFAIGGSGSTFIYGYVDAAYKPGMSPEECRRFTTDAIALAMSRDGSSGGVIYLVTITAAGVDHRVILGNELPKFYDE
UniProt P11908: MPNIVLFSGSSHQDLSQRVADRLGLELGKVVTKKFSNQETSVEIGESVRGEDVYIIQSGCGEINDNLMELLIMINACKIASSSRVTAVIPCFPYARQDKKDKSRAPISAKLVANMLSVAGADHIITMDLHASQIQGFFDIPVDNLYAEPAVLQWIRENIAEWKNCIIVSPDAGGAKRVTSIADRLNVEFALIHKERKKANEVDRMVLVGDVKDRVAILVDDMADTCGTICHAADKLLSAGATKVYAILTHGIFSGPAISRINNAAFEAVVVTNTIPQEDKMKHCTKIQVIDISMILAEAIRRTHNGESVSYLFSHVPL
UniProt Q9UL46, whole entry, looked up: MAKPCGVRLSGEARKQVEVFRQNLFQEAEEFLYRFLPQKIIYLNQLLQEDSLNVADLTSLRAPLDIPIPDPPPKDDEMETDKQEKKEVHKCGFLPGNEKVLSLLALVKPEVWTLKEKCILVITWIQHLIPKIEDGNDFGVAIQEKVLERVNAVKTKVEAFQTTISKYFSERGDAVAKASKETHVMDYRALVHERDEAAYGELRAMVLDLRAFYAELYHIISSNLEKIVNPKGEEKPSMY
UniProt P62191: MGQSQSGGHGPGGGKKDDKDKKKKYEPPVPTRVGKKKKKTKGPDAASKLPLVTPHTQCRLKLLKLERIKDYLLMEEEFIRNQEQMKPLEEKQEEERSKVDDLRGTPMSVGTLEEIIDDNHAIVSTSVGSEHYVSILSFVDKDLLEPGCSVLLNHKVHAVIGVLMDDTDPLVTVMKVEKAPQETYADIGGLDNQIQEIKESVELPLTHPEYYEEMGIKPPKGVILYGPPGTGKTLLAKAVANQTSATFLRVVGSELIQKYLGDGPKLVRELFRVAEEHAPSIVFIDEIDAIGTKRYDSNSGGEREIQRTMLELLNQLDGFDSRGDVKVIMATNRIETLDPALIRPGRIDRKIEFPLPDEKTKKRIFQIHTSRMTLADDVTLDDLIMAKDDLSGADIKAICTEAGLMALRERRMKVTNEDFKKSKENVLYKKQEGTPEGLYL
UniProt Q99436: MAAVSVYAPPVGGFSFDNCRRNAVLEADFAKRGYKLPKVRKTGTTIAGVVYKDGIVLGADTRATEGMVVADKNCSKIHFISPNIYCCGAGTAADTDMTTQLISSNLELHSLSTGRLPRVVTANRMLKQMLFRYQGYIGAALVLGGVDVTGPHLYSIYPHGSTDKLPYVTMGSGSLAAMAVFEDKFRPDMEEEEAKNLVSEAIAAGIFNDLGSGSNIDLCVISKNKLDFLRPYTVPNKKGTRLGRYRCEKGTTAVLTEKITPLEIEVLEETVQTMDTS
UniProt O75475: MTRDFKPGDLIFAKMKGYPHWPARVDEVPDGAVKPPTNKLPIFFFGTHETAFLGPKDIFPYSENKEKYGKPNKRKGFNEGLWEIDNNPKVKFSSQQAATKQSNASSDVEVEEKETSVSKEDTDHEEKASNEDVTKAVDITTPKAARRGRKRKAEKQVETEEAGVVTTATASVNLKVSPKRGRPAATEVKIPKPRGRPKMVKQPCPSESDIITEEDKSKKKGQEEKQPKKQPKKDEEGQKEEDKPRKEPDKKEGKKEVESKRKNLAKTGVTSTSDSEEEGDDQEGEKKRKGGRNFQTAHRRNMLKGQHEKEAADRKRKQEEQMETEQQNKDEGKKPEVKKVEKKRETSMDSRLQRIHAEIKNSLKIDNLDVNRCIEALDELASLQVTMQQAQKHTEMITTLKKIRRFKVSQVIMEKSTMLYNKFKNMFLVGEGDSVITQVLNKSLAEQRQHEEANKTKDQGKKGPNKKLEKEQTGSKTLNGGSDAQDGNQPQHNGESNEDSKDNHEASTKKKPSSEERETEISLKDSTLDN
UniProt P60484: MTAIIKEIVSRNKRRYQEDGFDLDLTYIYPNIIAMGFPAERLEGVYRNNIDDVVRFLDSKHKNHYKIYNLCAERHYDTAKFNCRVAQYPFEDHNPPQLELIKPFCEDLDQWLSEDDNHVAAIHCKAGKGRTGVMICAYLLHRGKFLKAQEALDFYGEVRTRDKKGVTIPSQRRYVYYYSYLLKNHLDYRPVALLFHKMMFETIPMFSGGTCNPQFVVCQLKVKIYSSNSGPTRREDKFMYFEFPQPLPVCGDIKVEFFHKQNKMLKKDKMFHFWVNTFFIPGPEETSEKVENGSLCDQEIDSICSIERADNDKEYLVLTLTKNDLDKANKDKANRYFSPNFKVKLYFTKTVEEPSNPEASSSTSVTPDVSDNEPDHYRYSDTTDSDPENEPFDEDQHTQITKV
UniProt Q86TP1: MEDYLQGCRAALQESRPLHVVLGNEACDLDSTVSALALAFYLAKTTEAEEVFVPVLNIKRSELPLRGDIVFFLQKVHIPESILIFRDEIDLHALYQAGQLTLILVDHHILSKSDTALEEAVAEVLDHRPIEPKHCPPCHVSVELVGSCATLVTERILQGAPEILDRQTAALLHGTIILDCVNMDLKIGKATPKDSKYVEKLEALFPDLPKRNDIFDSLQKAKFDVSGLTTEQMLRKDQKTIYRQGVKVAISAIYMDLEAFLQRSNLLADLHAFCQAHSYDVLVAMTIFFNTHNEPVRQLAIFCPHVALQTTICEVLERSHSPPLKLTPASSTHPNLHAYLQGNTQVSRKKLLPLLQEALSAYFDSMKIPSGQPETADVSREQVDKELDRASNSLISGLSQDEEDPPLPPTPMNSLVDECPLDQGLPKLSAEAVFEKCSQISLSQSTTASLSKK
UniProt O43242, whole entry, looked up: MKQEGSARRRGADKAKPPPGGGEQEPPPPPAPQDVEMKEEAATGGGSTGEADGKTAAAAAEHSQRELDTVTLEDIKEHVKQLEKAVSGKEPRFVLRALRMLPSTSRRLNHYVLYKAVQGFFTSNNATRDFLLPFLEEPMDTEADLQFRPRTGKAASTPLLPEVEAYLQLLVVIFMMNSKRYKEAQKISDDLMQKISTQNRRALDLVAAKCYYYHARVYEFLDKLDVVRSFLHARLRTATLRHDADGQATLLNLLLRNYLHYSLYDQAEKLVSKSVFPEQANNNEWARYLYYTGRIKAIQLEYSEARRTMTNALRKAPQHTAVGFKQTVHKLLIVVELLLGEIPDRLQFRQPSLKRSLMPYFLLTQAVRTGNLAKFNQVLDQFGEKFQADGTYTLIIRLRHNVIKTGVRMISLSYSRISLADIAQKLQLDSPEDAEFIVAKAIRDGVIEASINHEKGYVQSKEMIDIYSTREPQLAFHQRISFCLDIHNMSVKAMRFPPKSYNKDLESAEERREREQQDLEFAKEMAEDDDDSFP

How the values were obtained:
Experiment in all cases: log2 fold change, soluble protein after heating vs DMSO (PISA); higher = thermal stabilisation; K562 lysate, 10 uM; active = over 0.2 and 3.5 SD of the protein, either way, in both replicates (recomputed)
nilotinib = compound: Cc1cn(-c2cc(NC(=O)c3ccc(C)c(Nc4nccc(-c5cccnc5)n4)c3)cc(C(F)(F)F)c2)cn1 [nilotinib]
Summary of the method: (§1)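 Thermal stability, expressed as log-two fold change relative to solvent controls, is given from duplicates. Crude K562 extract in PBS pH 7.4 with 1 mM MgCl2, at 1 mg/mL protein, was treated with 10 μM compound for 30 min and heated in aliquots for 3 min across 48°C-58°C. After pooling, adjustment to 0.5% NP-40 at 4°C and centrifugation at 21,000xg for 90 min, supernatant protein was measured by TMTpro 16plex LC-MS/MS with channel sums equalised.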

[1] = compound: Cc1nc(Nc2n[nH]c3c2CN(C(=O)N[C@H](CN(C)C)c2ccccc2)C3(C)C)c2sccc2n1
Summary of the method: as §1

dasatinib = compound: Cc1nc(Nc2ncc(C(=O)Nc3c(C)cccc3Cl)s2)cc(N2CCN(CCO)CC2)n1 [dasatinib]
Summary of the method: as §1

[2] = compound: Cc1ncc(-c2ccnc(Nc3ccc(S(C)(=O)=O)cc3)n2)n1C(C)C
Summary of the method: as §1

[3] = compound: Cn1cc(-c2ccc3c(c2)CCN3C(=O)Cc2cccc(C(F)(F)F)c2)c2c(N)ncnc21
Summary of the method: as §1

quisinostat = compound: Cn1cc(CNCC2CCN(c3ncc(C(=O)NO)cn3)CC2)c2ccccc21 [quisinostat]
Summary of the method: as §1

tipifarnib = compound: Cn1cncc1[C@@](N)(c1ccc(Cl)cc1)c1ccc2c(c1)c(-c1cccc(Cl)c1)cc(=O)n2C [tipifarnib]
Summary of the method: as §1

[4] = compound: NC(=O)Nc1cc(-c2cccc(F)c2)sc1C(=O)N[C@H]1CCCNC1
Summary of the method: as §1

[5] = compound: NC(=O)c1cnc(N[C@@H]2CCCC[C@@H]2N)nc1Nc1cccc(-n2nccn2)c1
Summary of the method: as §1

[6] = compound: NC1(c2ccc(-c3nc4ccn5c(=O)[nH]nc5c4cc3-c3ccccc3)cc2)CCC1
Summary of the method: as §1

Measured: log2 fold change

PRXL2B isoform 3 (UniProt Q8TBF2)
inactive: nilotinib 0.027 | [1] -0.057 | dasatinib -0.083 | [2] -0.028 | [3] 0.01 | quisinostat -0.03 | tipifarnib -0.015 | [4] -0.021 | [5] 0.02 | [6] -0.018

PTPN2 (UniProt P17706)
inactive: nilotinib 0 | [1] 0.026 | dasatinib -0.026 | [2] -0.041 | [3] 0.014 | quisinostat -0.067 | tipifarnib -0.001 | [4] 0.025 | [5] 0.006 | [6] -0.005

PSMD7 (UniProt P51665)
inactive: nilotinib 0.015 | [1] 0.029 | dasatinib -0.012 | [2] 0.017 | [3] -0.004 | quisinostat -0.025 | tipifarnib -0.011 | [4] 0.048 | [5] 0.006 | [6] -0.019

PUS3 (UniProt Q9BZE2)
inactive: nilotinib -0.019 | [1] 0.045 | dasatinib -0.063 | [2] -0.042 | [3] 0.145 | quisinostat 0.078 | tipifarnib -0.007 | [4] -0.003 | [5] 0.023 | [6] 0.075

PSMD12 (UniProt O00232)
inactive: nilotinib 0.015 | [1] -0.023 | dasatinib 0.023 | [2] -0.038 | [3] 0.011 | quisinostat -0.002 | tipifarnib 0.015 | [4] 0.005 | [5] 0.003 | [6] 0

PSMG2 (UniProt Q969U7)
inactive: nilotinib 0.015 | [1] -0.055 | dasatinib -0.005 | [2] -0.008 | [3] -0.003 | quisinostat 0.004 | tipifarnib 0.027 | [4] -0.014 | [5] -0.013 | [6] 0.018

PTP4A1 (UniProt Q93096)
inactive: nilotinib -0.035 | [1] 0.005 | dasatinib 0.026 | [2] -0.057 | [3] 0 | quisinostat 0.151 | tipifarnib 0.011 | [4] -0.059 | [5] -0.011 | [6] -0.029

PRPS1 (UniProt B1ALA9)
inactive: nilotinib 0.071 | [1] -0.052 | dasatinib -0.034 | [2] 0.038 | [3] 0.014 | quisinostat 0.003 | tipifarnib 0.057 | [4] -0.013 | [5] -0.014 | [6] -0.001

PTPN1 (UniProt P18031)
inactive: nilotinib -0.001 | [1] 0.019 | dasatinib -0.062 | [2] 0.007 | [3] 0.027 | quisinostat -0.051 | tipifarnib -0.032 | [4] 0.039 | [5] 0.026 | [6] 0.021

Quoted at random: 2 records from the list
PTP4A1 (UniProt Q93096)
inactive: nilotinib -0.035 | [1] 0.005 | dasatinib 0.026 | [2] -0.057 | [3] 0 | quisinostat 0.151 | tipifarnib 0.011 | [4] -0.059 | [5] -0.011 | [6] -0.029

PRPS1 (UniProt B1ALA9)
inactive: nilotinib 0.071 | [1] -0.052 | dasatinib -0.034 | [2] 0.038 | [3] 0.014 | quisinostat 0.003 | tipifarnib 0.057 | [4] -0.013 | [5] -0.014 | [6] -0.001

Later entries

PSTPIP2 (UniProt Q9H939)
inactive: nilotinib 0.029 | [1] 0.016 | dasatinib -0.056 | [2] 0.028 | [3] 0.023 | quisinostat -0.037 | tipifarnib -0.008 | [4] 0.008 | [5] -0.007 | [6] 0.007

PTS (UniProt Q03393)
inactive: nilotinib 0.172 | [1] 0.024 | dasatinib 0 | [2] -0.018 | [3] 0.082 | quisinostat -0.083 | tipifarnib 0.112 | [4] 0.126 | [5] 0.006 | [6] -0.077

PTCD2 (UniProt Q8WV60)
inactive: nilotinib -0.241 | [1] -0.151 | dasatinib -0.059 | [2] 0 | [3] 0.115 | quisinostat -0.009 | tipifarnib 0.103 | [4] 0.126 | [5] -0.112 | [6] -0.029

PSMG1 (UniProt O95456)
inactive: nilotinib -0.004 | [1] 0.019 | dasatinib -0.004 | [2] -0.021 | [3] 0.025 | quisinostat 0.045 | tipifarnib -0.013 | [4] -0.016 | [5] 0.002 | [6] 0.019

PTBP1 (UniProt P26599)
inactive: nilotinib 0.08 | [1] -0.026 | dasatinib -0.053 | [2] 0.032 | [3] -0.04 | quisinostat -0.025 | tipifarnib 0.03 | [4] 0.001 | [5] -0.044 | [6] 0.026

PTBP3 isoform 4 (UniProt O95758)
inactive: nilotinib 0.061 | [1] -0.046 | dasatinib -0.009 | [2] 0.002 | [3] 0.04 | quisinostat -0.041 | tipifarnib 0.008 | [4] -0.019 | [5] -0.006 | [6] 0.047

PSMB9 (UniProt P28065)
inactive: nilotinib 0.019 | [1] 0.092 | dasatinib -0.031 | [2] -0.098 | [3] -0.033 | quisinostat -0.213 | tipifarnib 0.024 | [4] 0.027 | [5] 0.034 | [6] -0.076

PRRC2C isoform 7 (UniProt Q9Y520)
inactive: nilotinib -0.054 | [1] 0.014 | dasatinib -0.008 | [2] 0.017 | [3] -0.02 | quisinostat -0.011 | tipifarnib -0.021 | [4] 0.017 | [5] -0.005 | [6] 0.002

PRPS2 isoform 2 (UniProt P11908)
inactive: nilotinib 0.02 | [1] -0.02 | dasatinib -0.033 | [2] -0.013 | [3] 0.013 | quisinostat 0.014 | tipifarnib 0.004 | [4] -0.003 | [5] -0.008 | [6] 0.032

PSME2 (UniProt Q9UL46)
inactive: nilotinib -0.021 | [1] -0.008 | dasatinib -0.016 | [2] -0.035 | [3] -0.05 | quisinostat -0.001 | tipifarnib -0.021 | [4] -0.009 | [5] 0.017 | [6] 0.009

PSMC1 (UniProt P62191)
inactive: nilotinib 0.023 | [1] 0.01 | dasatinib -0.017 | [2] -0.011 | [3] 0.016 | quisinostat -0.007 | tipifarnib 0.008 | [4] 0.015 | [5] -0.008 | [6] -0.009

PTGS1 isoform 6 (UniProt P23219)
inactive: nilotinib 0.021 | [1] 0.058 | dasatinib 0.034 | [2] 0.043 | [3] 0.053 | quisinostat -0.04 | tipifarnib -0.039 | [4] 0.022 | [5] -0.008 | [6] 0.001

PSMB7 (UniProt Q99436)
inactive: nilotinib 0.043 | [1] 0.001 | dasatinib 0.039 | [2] 0.034 | [3] 0.014 | quisinostat -0.046 | tipifarnib 0.009 | [4] 0.003 | [5] -0.002 | [6] -0.011

PRUNE2 isoform 3 (UniProt Q8WUY3)
inactive: nilotinib 0.028 | [1] 0.054 | dasatinib 0.004 | [2] -0.018 | [3] -0.009 | quisinostat -0.019 | tipifarnib 0.093 | [4] -0.01 | [5] 0.079 | [6] -0.032

PSIP1 (UniProt O75475)
inactive: nilotinib 0.051 | [1] 0.013 | dasatinib -0.024 | [2] 0.057 | [3] 0.025 | quisinostat -0.055 | tipifarnib -0.008 | [4] -0.018 | [5] 0 | [6] 0.001

PTGR2 (UniProt Q8N8N7)
inactive: nilotinib 0.024 | [1] -0.044 | dasatinib 0.012 | [2] 0.025 | [3] 0.024 | quisinostat -0.008 | tipifarnib 0.034 | [4] -0.011 | [5] -0.002 | [6] 0.011

PTEN isoform 2 (UniProt P60484)
inactive: nilotinib 0.026 | [1] -0.022 | dasatinib -0.121 | [2] -0.029 | [3] 0.026 | quisinostat -0.13 | tipifarnib -0.002 | [4] -0.029 | [5] -0.058 | [6] -0.073

PRUNE1 (UniProt Q86TP1)
inactive: nilotinib 0.009 | [1] -0.031 | dasatinib 0.018 | [2] 0.02 | [3] 0.012 | quisinostat -0.034 | tipifarnib -0.009 | [4] 0.016 | [5] -0.005 | [6] -0.037

PRRC2A (UniProt P48634)
inactive: nilotinib -0.044 | [1] 0.01 | dasatinib 0.004 | [2] 0.002 | [3] -0.003 | quisinostat 0.015 | tipifarnib -0.036 | [4] 0.059 | [5] -0.011 | [6] 0.02

PSMD3 (UniProt O43242)
inactive: nilotinib 0.006 | [1] -0.01 | dasatinib -0.007 | [2] -0.002 | [3] -0.008 | quisinostat 0.023 | tipifarnib 0.023 | [4] 0.006 | [5] -0.01 | [6] -0.004
